Measurements from “University of Dundee, Small-Polar-MMV Screening Library” (2021), ChEMBL document CHEMBL3988442.

Protein sequences, listed by entry. Tags and fused reporters are not part of them.
UniProt I6X8D2, whole entry: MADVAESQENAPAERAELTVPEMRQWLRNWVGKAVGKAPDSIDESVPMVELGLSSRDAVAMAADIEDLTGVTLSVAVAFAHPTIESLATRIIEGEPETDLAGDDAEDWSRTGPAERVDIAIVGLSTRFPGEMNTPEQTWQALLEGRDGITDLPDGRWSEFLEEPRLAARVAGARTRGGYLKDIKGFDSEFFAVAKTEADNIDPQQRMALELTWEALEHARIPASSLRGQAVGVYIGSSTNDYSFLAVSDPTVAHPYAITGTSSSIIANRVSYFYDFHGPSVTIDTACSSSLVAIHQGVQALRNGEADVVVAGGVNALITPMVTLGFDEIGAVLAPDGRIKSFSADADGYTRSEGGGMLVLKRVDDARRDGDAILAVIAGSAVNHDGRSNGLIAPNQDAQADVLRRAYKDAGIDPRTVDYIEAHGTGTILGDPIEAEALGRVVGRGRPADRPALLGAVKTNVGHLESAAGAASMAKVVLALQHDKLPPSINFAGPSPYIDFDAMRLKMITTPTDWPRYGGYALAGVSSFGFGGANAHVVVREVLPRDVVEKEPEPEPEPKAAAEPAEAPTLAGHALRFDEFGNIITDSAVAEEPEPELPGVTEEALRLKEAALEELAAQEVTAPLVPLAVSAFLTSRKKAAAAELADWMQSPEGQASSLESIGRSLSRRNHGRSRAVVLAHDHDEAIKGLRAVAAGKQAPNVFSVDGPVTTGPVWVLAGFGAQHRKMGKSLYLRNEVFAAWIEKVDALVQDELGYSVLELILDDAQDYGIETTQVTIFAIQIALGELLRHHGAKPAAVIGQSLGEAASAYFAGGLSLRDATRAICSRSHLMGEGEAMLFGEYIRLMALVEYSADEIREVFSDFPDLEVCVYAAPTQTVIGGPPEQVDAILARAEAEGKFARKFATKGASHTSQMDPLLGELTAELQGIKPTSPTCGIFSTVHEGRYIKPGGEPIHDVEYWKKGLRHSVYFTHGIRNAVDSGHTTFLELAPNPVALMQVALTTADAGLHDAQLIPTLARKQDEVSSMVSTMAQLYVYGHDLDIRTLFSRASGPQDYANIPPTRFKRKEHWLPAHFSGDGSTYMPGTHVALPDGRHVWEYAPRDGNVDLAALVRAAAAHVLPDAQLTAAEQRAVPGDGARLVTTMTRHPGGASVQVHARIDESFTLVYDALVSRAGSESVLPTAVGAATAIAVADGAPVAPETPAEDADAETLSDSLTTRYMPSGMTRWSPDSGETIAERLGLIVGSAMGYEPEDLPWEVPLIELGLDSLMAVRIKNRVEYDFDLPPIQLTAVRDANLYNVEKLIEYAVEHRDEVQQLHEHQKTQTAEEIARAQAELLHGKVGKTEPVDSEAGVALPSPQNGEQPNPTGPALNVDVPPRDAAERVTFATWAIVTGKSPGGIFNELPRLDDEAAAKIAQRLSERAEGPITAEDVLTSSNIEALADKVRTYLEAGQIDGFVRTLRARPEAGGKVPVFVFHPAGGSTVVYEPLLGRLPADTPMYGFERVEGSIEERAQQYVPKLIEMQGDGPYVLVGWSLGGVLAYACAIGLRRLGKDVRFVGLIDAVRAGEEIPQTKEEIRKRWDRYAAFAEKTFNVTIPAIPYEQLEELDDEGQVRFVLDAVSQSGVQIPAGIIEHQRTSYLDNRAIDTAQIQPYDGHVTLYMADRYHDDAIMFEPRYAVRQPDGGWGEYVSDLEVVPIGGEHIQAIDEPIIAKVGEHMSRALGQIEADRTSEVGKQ
UniProt P9WNZ1, whole entry: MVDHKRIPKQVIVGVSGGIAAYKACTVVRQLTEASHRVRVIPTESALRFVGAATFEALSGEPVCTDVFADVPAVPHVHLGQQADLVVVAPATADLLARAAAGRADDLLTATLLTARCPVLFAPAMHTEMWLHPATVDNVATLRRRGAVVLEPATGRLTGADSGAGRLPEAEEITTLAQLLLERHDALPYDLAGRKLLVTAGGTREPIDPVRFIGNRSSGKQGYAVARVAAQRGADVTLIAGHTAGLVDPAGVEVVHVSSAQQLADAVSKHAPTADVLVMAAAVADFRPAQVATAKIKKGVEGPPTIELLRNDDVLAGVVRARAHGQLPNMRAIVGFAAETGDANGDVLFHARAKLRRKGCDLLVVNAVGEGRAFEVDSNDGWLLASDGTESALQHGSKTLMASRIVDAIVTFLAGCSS
UniProt P9WFT3, whole entry: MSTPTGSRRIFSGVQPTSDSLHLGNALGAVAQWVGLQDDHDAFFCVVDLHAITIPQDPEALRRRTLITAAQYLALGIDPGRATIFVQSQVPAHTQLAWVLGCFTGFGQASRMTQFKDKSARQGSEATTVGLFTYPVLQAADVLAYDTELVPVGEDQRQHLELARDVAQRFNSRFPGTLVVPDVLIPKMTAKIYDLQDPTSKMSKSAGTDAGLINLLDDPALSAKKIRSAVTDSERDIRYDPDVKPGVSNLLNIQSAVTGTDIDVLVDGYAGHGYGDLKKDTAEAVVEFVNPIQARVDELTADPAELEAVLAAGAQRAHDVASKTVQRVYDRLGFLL

Pks13 thioesterase: 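Polyketide synthase Pks13, Mycobacterium tuberculosis (UniProt I6X8D2). Enzyme assay of the thioesterase domain of polyketide synthase 13; the read-out is not stated. Tested at 30 µM. The record gives no direction; the compounds picked for IC50 retests had high values, so higher reads as stronger inhibition. Of about 67,000 compounds tested this way, about 300 (0.46%) reached 50% or more in at least one test.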
CoaBC: 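Coenzyme A biosynthesis protein CoaBC, Mycobacterium tuberculosis (UniProt P9WNZ1). Enzyme assay of CoaBC with a phosphate dye (Biomol Green) read at 650 nm. Concentration: 30 µM. Direction is inferred from only a few compounds that gave an IC50; most scored high, so higher reads as stronger inhibition. Most strong results did not repeat in a second test. Of about 67,000 compounds tested this way, about 40 (0.06%) reached 50% or more in at least one test.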
Leishmania in macrophages: 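Cell assay of Leishmania donovani living inside macrophages; the read-out is not stated. Compounds at 30 µM. Higher reads as stronger inhibition (inferred: compounds with an IC50 in retests scored well above the rest). Of about 69,000 compounds tested this way, about 1,000 (1.5%) reached 50% or more in at least one test.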
MtTrpRS: 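Tryptophan-tRNA ligase, Mycobacterium tuberculosis (UniProt P9WFT3). Enzyme assay of tryptophanyl-tRNA synthetase; the read-out is not stated. Concentration: 10 µM. Direction is not recorded; retested compounds ran higher, which suggests that high means inhibition. Of about 65,000 compounds tested this way, about 64 (0.098%) reached 50% or more in at least one test.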

Each number is a percent effect as filed.
The controls that fix the scale are not given in the record; negative values are as filed.
The compounds are a random part of those screened.
A dash means the value is not listed here; it may have been measured.

Result for CN(C)C(=O)c1cn[nH]c1C1(C)CCN(c2ncccn2)CC1 was Pks13 thioesterase: 72.9%; CoaBC: -3.699%; Leishmania in macrophages: -43.79%; MtTrpRS: 1.055%.
Result for O=C(c1cscn1)N1CCC2(CCN(Cc3nccs3)C2)CC1 was Pks13 thioesterase: -10.92%; CoaBC: 10.8%; Leishmania in macrophages: 18.89%; MtTrpRS: 3.575%.
Result for CCc1nc(C2CCCN(C(=O)c3ccc(Cl)cc3)C2)no1 (stereo not drawn) was Pks13 thioesterase: -11.3%; CoaBC: 2.35%; Leishmania in macrophages: 1.641%; MtTrpRS: -4.514%.
Result for Fc1ccc(C2(CNCCc3cccs3)CCOC2)cc1 (stereo not drawn) was Pks13 thioesterase: -20.42%; CoaBC: -2.982%; Leishmania in macrophages: -3.449%; MtTrpRS: -0.6256%.
Result for Cc1cc2cccc(NC(=O)N3CCC(N(C)C)C3)c2o1 (stereo not drawn) was Pks13 thioesterase: 1.846%; CoaBC: 11.19%; Leishmania in macrophages: -5.408%; MtTrpRS: 7.586%.
Result for CC(C)Cc1cc(C(=O)NCCc2ccc(S(C)(=O)=O)cc2)[nH]n1 was Pks13 thioesterase: -20.11%; CoaBC: 1.754%; Leishmania in macrophages: 16.5%; MtTrpRS: -4.555%.
Result for COCCN(C)C(=O)c1nc2c(s1)CCCN2c1ccc(C)nn1 was Pks13 thioesterase: -2.437%; CoaBC: 0.8485%; Leishmania in macrophages: 21.01%.
Result for CNc1nc(C2CCCN(C(=O)CNC(C)=O)C2)nc2c1CN(C)CC2 (stereo not drawn) was Pks13 thioesterase: 9.405%; CoaBC: 4.574%; Leishmania in macrophages: -5.105%; MtTrpRS: 17.57%.
Result for CCCn1cc(-c2cc(C(=O)N(C)C)c3ccc(C)cc3n2)cn1 was Pks13 thioesterase: 14.85%; CoaBC: -0.9709%; Leishmania in macrophages: 32.68%; MtTrpRS: -1.211%.
Result for O=C([C@@H]1CCCO1)N1CCC(Cn2cc(-c3ccsc3)nn2)CC1 was Pks13 thioesterase: -10.39%; CoaBC: 0.8584%; Leishmania in macrophages: -0.4848%; MtTrpRS: -3.078%.
Result for CC(C)=CCN1CCN(C(=O)c2cc(C(C)C)on2)[C@H]2CS(=O)(=O)C[C@H]21 was Pks13 thioesterase: -8.525%; CoaBC: 1.332%; MtTrpRS: -0.6221%.
Result for CC(C)c1nc(CN(C)C(=O)c2ccc3c(c2)OCO3)cs1 was Pks13 thioesterase: -5.411%; CoaBC: 5.844%; Leishmania in macrophages: -23.13%; MtTrpRS: 0%.
Result for COCCO[C@H]1CCN(C(=O)c2cc(C)on2)[C@H]1Cc1ccccc1 was Pks13 thioesterase: -1.021%; CoaBC: -0.2418%; Leishmania in macrophages: 27.04%; MtTrpRS: 2.672%.
Result for CS(=O)(=O)N1CCCC1c1ccnc2nccn12 (stereo not drawn) was Pks13 thioesterase: 15.16%; CoaBC: 2.959%; Leishmania in macrophages: 10.63%; MtTrpRS: -2.243%.
Result for COc1ccc(C(=O)N2CCN(c3cc(CCN)nc(C)n3)CC2)cc1 was Pks13 thioesterase: -2.164%; CoaBC: 5.669%; Leishmania in macrophages: 0.4639%; MtTrpRS: -1.377%.
Result for Cc1ncc(CNCC(=O)NCC(F)(F)F)n1-c1ccccc1 was Pks13 thioesterase: -20.53%; CoaBC: -2.419%; Leishmania in macrophages: 11.81%; MtTrpRS: -2.599%.
Result for CC(C)CS(=O)(=O)N1C[C@H]2C[C@H](C(=O)NCc3ccccc3)[C@@H](C1)O2 was Pks13 thioesterase: -13.24%; CoaBC: 1.75%; MtTrpRS: 0.603%.
Result for Cc1ccncc1NS(=O)(=O)c1ccc(Cl)s1 was Pks13 thioesterase: -16.08%; CoaBC: 13.2%; Leishmania in macrophages: 13.07%; MtTrpRS: -1.876%.
Result for CS(=O)(=O)N1CC2(CCCN(C3COC3)C2)Cc2ccccc21 (stereo not drawn) was Pks13 thioesterase: -17.47%; CoaBC: -2.632%; Leishmania in macrophages: 21.04%; MtTrpRS: 2.506%.
Result for Cc1nc(CN2CCCN(C(=O)COCC3CC3)CC2)cs1 was Pks13 thioesterase: -0.3213%; CoaBC: 17.47%; Leishmania in macrophages: 13.24%; MtTrpRS: 1.319%.
Result for Cc1csc(CCNC(=O)C2CCN(CC(N)=O)CC2)n1 was Pks13 thioesterase: 0.8828%; CoaBC: 0.6508%; Leishmania in macrophages: 5.79%; MtTrpRS: 7.498%.
Result for O=C(CCc1ccsc1)N1CCCC(N2CCNC2=O)C1 (stereo not drawn) was Pks13 thioesterase: 14.16%; CoaBC: 3.924%; Leishmania in macrophages: -9.751%; MtTrpRS: -1.088%.
Result for COCCN1CCC(CNc2nccc(-c3cnn(C)c3)n2)CC1 was Pks13 thioesterase: 12.47%; CoaBC: -0.2179%; Leishmania in macrophages: 4.543%; MtTrpRS: -8.038%.
Result for OC(COCc1cccs1)Cn1cc(-n2cccc2)cn1 (stereo not drawn) was Pks13 thioesterase: -15.08%; CoaBC: 5.724%; Leishmania in macrophages: -16.61%; MtTrpRS: 7.917%.
Result for CCOC(C)c1noc(CN2CCN(Cc3cccc(F)c3)CC2)n1 (stereo not drawn) was Pks13 thioesterase: 3.034%; CoaBC: -2.415%; Leishmania in macrophages: 8.245%; MtTrpRS: -1.636%.
Result for [H][C@@]12CCCN1CCCN(c1nc(C(C)(C)C)nc3c1cnn3C)C2 was Leishmania in macrophages: -35.36%.
Result for COc1cc(OC)cc(-c2cc(N)on2)c1 was Pks13 thioesterase: -22.71%; CoaBC: -0.4603%; Leishmania in macrophages: 15.18%; MtTrpRS: -3.86%.
Result for O=C(CSc1ccccc1Cl)NS(=O)(=O)c1ccc2c(c1)OCCO2 was Pks13 thioesterase: -6.262%; CoaBC: -5.851%; Leishmania in macrophages: 3.244%; MtTrpRS: 5.346%.
Result for CC(C)Nc1cc(N2CCC(n3cc(C4CC4)nn3)CC2)ncn1 was Pks13 thioesterase: -17.87%; CoaBC: 2.694%; Leishmania in macrophages: 42.92%; MtTrpRS: -1.419%.
Result for O=C(O)C(F)(F)F.O=C(O)C(F)(F)F.[H][C@@]12CCCO[C@]1([H])[C@H](NC(=O)c1cnn(C)c1)CN2Cc1cccnc1 was Leishmania in macrophages: 13.68%.
Result for COCc1noc(Cn2c(C)cc(C(F)(F)F)cc2=O)n1 was Pks13 thioesterase: -12.5%; CoaBC: 0%; Leishmania in macrophages: 8.422%; MtTrpRS: -2.976%.

For reference, 4 entries once more:

| structure | Pks13 thioesterase | CoaBC | Leishmania in macrophages | MtTrpRS |
|---|---|---|---|---|
| `O=C(O)C(F)(F)F.O=C(O)C(F)(F)F.[H][C@@]12CCCO[C@]1([H])[C@H](NC(=O)c1cnn(C)c1)CN2Cc1cccnc1` | - | - | 13.68 | - |
| `CC(C)Cc1cc(C(=O)NCCc2ccc(S(C)(=O)=O)cc2)[nH]n1` | -20.11 | 1.754 | 16.5 | -4.555 |
| `CCCn1cc(-c2cc(C(=O)N(C)C)c3ccc(C)cc3n2)cn1` | 14.85 | -0.9709 | 32.68 | -1.211 |
| `CN(C)C(=O)c1cn[nH]c1C1(C)CCN(c2ncccn2)CC1` | 72.9 | -3.699 | -43.79 | 1.055 |